Measurements as given in the supplement of paper PMC10849652.
Some of the results follow.

Chains of the proteins cited; added tags and fusions are not shown. Lines headed by an entry give the natural chain unless they say otherwise; changes in a name come on top.
UniProt O60825: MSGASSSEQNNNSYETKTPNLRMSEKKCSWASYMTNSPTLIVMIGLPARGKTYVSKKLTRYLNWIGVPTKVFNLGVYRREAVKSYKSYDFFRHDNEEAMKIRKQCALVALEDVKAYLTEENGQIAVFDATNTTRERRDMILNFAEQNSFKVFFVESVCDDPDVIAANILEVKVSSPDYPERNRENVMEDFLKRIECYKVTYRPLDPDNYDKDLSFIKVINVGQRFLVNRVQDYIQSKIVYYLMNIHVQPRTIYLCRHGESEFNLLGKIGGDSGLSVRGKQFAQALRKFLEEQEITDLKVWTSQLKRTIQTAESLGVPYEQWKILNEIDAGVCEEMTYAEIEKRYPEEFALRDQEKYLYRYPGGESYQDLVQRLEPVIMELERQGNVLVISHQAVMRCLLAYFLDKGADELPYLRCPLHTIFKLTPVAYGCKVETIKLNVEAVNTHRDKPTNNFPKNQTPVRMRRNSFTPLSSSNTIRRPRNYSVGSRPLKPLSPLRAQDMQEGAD
UniProt Q8WW12: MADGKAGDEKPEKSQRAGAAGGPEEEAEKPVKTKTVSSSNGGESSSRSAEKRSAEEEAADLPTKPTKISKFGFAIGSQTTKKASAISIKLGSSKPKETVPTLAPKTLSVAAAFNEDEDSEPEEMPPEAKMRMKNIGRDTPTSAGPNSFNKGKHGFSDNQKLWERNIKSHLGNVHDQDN
UniProt P50479: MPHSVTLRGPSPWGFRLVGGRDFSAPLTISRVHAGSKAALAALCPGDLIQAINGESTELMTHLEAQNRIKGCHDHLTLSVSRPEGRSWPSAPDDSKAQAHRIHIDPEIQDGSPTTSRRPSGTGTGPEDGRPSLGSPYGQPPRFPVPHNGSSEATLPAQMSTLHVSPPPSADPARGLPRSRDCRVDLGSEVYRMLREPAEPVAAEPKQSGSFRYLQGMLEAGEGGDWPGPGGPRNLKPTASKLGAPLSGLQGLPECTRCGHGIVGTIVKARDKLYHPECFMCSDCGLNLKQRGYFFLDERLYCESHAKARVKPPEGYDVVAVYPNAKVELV
UniProt Q9NTI5: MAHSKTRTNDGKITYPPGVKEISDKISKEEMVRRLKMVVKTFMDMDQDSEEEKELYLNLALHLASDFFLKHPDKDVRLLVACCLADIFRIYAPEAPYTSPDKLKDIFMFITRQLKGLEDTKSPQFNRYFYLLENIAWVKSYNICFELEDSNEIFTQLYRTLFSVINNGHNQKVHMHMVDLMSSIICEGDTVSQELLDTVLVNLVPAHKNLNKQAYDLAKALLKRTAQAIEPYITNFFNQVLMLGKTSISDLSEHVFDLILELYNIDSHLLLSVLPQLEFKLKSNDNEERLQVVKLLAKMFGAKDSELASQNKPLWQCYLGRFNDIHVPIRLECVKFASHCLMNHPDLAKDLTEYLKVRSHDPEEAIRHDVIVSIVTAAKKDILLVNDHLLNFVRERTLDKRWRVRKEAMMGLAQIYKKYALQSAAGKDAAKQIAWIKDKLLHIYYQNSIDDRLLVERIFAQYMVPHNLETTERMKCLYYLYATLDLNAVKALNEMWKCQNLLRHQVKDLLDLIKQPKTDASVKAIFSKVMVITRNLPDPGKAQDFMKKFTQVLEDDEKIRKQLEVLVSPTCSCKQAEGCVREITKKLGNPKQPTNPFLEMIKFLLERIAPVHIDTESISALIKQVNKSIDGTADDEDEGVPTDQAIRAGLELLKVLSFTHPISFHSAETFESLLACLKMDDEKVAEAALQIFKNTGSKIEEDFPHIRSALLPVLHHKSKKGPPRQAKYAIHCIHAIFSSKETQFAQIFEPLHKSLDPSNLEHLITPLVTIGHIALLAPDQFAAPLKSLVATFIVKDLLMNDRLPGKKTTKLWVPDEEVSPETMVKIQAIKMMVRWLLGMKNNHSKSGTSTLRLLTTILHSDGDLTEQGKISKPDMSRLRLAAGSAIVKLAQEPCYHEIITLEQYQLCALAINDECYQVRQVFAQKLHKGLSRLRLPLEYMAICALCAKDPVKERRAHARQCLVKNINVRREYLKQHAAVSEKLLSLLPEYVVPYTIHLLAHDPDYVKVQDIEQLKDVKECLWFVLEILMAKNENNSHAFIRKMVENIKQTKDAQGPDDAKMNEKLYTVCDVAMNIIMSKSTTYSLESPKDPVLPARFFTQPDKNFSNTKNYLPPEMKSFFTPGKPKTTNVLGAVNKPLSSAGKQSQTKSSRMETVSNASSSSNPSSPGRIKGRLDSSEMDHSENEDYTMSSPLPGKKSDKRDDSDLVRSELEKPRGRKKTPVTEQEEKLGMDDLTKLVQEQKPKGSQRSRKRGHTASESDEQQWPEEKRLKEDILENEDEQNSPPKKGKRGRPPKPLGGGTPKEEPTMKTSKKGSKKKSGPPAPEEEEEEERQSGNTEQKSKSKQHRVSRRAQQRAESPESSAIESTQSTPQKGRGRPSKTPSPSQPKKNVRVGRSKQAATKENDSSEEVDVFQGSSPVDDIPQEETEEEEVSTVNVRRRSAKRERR
UniProt Q9UBV8: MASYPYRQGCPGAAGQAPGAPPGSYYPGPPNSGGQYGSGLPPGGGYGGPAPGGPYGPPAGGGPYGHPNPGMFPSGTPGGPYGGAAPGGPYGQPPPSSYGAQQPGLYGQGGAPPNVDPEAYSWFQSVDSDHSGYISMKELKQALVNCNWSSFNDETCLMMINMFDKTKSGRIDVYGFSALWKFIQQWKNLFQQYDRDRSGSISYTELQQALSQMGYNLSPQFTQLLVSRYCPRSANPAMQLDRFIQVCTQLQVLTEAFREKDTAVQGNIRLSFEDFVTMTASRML
UniProt Q7L3T8: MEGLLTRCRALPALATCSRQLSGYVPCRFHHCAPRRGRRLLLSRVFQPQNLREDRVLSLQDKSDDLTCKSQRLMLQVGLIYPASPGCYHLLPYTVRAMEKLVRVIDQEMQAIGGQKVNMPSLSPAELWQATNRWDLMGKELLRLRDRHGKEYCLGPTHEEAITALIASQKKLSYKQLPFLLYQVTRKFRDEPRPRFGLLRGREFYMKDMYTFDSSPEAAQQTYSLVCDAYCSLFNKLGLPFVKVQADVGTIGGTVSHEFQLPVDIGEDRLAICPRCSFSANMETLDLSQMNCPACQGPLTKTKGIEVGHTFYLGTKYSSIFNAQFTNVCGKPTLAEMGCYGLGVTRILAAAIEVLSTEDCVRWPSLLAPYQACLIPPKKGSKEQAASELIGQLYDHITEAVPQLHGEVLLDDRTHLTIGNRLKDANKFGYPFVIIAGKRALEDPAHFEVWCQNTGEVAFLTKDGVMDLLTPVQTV
UniProt Q8NEN9: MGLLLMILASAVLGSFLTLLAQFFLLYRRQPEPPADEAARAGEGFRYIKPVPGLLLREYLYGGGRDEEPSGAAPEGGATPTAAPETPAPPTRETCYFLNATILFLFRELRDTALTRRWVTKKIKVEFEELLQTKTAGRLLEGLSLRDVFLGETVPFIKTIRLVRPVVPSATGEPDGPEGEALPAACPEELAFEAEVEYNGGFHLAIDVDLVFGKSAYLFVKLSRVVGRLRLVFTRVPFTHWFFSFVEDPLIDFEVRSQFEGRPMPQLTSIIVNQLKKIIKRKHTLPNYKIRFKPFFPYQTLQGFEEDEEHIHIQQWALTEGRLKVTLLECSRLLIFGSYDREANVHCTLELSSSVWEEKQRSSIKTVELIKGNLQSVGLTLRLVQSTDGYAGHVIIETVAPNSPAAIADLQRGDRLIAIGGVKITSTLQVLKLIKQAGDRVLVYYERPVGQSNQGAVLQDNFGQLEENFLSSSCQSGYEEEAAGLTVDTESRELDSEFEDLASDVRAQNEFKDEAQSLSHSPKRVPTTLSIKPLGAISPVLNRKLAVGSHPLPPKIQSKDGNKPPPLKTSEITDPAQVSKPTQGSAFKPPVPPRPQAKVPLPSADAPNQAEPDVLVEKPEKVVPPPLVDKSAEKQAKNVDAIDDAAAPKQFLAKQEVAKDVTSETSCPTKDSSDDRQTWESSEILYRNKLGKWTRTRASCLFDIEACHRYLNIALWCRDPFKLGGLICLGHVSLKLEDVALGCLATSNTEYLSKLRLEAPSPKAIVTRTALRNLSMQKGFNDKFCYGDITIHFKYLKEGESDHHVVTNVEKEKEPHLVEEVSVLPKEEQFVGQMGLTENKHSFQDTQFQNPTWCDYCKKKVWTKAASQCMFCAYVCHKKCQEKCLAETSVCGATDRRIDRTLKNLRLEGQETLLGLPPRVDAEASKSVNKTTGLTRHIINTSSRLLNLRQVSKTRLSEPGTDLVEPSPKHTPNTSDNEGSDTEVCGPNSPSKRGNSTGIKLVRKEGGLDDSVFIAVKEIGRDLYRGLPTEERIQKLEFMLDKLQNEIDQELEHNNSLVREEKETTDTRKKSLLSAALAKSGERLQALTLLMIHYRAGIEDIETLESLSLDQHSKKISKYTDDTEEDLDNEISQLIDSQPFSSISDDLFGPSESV
UniProt P18669: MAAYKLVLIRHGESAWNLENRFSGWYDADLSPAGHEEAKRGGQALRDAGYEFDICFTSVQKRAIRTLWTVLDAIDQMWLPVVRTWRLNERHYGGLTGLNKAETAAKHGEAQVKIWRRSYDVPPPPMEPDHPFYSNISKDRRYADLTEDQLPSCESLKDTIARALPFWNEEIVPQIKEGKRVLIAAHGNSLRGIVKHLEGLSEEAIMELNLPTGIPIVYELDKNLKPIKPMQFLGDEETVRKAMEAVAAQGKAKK
UniProt Q8NCN5: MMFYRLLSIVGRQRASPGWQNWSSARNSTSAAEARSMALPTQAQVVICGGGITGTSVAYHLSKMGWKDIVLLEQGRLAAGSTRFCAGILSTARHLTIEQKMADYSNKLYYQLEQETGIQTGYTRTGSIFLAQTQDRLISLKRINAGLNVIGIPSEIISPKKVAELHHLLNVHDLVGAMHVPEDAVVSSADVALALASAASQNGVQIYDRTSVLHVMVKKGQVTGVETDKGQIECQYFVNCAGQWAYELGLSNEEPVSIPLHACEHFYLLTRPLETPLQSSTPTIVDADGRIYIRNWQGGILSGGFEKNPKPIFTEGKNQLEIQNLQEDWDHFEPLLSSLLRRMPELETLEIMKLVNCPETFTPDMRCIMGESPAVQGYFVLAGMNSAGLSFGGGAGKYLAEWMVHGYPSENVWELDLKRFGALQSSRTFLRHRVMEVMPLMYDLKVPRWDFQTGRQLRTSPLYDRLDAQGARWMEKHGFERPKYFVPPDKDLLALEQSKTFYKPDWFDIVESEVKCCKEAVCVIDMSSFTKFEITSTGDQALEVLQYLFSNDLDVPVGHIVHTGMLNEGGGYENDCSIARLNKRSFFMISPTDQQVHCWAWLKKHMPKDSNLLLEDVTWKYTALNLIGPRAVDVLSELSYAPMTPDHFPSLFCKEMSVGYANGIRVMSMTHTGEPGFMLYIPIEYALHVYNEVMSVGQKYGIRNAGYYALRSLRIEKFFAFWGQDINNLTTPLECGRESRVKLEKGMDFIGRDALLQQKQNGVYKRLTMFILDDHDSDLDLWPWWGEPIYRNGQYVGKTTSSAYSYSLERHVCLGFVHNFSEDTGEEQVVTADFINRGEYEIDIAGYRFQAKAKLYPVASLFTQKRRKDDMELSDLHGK
UniProt P30101, whole entry, looked up: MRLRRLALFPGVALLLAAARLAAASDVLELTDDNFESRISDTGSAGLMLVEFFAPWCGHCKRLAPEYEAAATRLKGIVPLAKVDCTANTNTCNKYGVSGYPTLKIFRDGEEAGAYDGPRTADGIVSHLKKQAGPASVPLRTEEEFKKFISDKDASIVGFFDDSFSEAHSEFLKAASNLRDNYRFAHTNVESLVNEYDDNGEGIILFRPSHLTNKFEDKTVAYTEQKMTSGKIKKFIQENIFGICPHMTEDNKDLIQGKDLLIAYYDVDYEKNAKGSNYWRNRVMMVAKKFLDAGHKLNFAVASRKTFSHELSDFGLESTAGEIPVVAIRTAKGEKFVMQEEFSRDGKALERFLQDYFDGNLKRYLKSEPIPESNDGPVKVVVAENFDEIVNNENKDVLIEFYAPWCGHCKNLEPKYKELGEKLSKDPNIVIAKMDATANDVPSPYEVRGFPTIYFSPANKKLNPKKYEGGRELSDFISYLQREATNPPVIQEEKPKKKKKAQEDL
UniProt Q9Y5K3: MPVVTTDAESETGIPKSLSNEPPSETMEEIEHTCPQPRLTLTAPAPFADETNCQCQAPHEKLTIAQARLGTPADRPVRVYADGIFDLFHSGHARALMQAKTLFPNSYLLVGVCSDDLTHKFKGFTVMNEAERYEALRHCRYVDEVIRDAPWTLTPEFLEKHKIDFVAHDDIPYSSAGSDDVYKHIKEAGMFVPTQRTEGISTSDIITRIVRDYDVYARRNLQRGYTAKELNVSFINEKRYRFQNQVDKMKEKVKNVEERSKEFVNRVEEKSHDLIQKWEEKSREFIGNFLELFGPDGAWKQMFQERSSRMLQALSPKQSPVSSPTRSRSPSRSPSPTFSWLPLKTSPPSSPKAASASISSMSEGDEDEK

Legend:
Experiment in all cases: log2 fold change, soluble protein after heating vs DMSO (PISA); higher = thermal stabilisation; K562 lysate, 10 uM; active = over 0.2 and 3.5 SD of the protein, either way, in both replicates (recomputed)
alvocidib = compound: CN1CC[C@H](c2c(O)cc(O)c3c(=O)cc(-c4ccccc4Cl)oc23)[C@H](O)C1 [alvocidib]
Outline: (§1)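 A 30 min treatment with 10 μM compound was applied to crude K562 extract at 1 mg/mL protein in PBS pH 7.4 with 1 mM MgCl2. Heating for 3 min spanned 48°C-58°C, after which aliquots were pooled, adjusted to 0.5% NP-40 at 4°C and spun at 21,000xg for 90 min. TMTpro 16plex LC-MS/MS of the supernatant, with channel sums equalised, gave values recorded as log-two fold change in thermal stability against solvent controls, from duplicates.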

Tubastatin A = compound: CN1CCc2c(c3ccccc3n2Cc2ccc(C(=O)NO)cc2)C1 [Tubastatin A]
Outline: as §1

[1] = compound: CNC(=O)C1=CC=CC=C1NC2=NC(=NC=C2Cl)NC3=C(C=C(C=C3)N4CCOCC4)OC
Outline: as §1

defactinib = compound: CNC(=O)c1ccc(Nc2ncc(C(F)(F)F)c(NCc3nccnc3N(C)S(C)(=O)=O)n2)cc1 [defactinib]
Outline: as §1

[2] = compound: CNc1nc(-c2ccc3c(N)n[nH]c3c2)cc(N2C[C@@H](C(=O)NC3CCCCC3)CC[C@H]2C)n1
Outline: as §1

encorafenib = compound: COC(=O)N[C@@H](C)CNc1nccc(-c2cn(C(C)C)nc2-c2cc(Cl)cc(NS(C)(=O)=O)c2F)n1 [encorafenib]
Outline: as §1

[3] = compound: COC(=O)[C@H](CCSC)NC(=O)C1=C(C=C(C=C1)NC[C@H](CS)N)C2=CC=CC=C2
Outline: as §1

alisertib = compound: COc1cc(Nc2ncc3c(n2)-c2ccc(Cl)cc2C(c2c(F)cccc2OC)=NC3)ccc1C(=O)O [alisertib]
Outline: as §1

[4] = compound: COc1cc2nc(-c3cc(F)ccc3O)nc(N[C@@H]3CNC[C@H]3C(C)(C)O)c2cc1OC
Outline: as §1

gefitinib = compound: COc1cc2ncnc(Nc3ccc(F)c(Cl)c3)c2cc1OCCCN1CCOCC1 [gefitinib]
Outline: as §1

lapatinib = compound: CS(=O)(=O)CCNCc1ccc(-c2ccc3ncnc(Nc4ccc(OCc5cccc(F)c5)c(Cl)c4)c3c2)o1 [lapatinib]
Outline: as §1

pictilisib = compound: CS(=O)(=O)N1CCN(Cc2cc3nc(-c4cccc5[nH]ncc45)nc(N4CCOCC4)c3s2)CC1 [pictilisib]
Outline: as §1

crizotinib = compound: C[C@@H](Oc1cc(-c2cnn(C3CCNCC3)c2)cnc1N)c1c(Cl)ccc(F)c1Cl [crizotinib]
Outline: as §1

[5] = compound: C[C@H](C1=CC=C(C=C1)C(=O)NC2=C3C=CNC3=NC=C2)N
Outline: as §1

duvelisib = compound: C[C@H](Nc1ncnc2nc[nH]c12)c1cc2cccc(Cl)c2c(=O)n1-c1ccccc1 [duvelisib]
Outline: as §1

gandotinib = compound: Cc1cc(Nc2cc(CN3CCOCC3)c3nc(C)c(Cc4ccc(Cl)cc4F)n3n2)n[nH]1 [gandotinib]
Outline: as §1

tozasertib = compound: Cc1cc(Nc2cc(N3CCN(C)CC3)nc(Sc3ccc(NC(=O)C4CC4)cc3)n2)n[nH]1 [tozasertib]
Outline: as §1

doramapimod = compound: Cc1ccc(-n2nc(C(C)(C)C)cc2NC(=O)Nc2ccc(OCCN3CCOCC3)c3ccccc23)cc1 [doramapimod]
Outline: as §1

bafetinib = compound: Cc1ccc(NC(=O)c2ccc(CN3CC[C@H](N(C)C)C3)c(C(F)(F)F)c2)cc1Nc1nccc(-c2cncnc2)n1 [bafetinib]
Outline: as §1

[6] = compound: Cc1cccc(CC(=O)N2CCc3c2ccc(-c2cn(C)c4ncnc(N)c24)c3F)n1
Outline: as §1

| Target | log2 fold change (alvocidib) | log2 fold change (Tubastatin A) | log2 fold change [1] | log2 fold change (defactinib) | log2 fold change [2] | log2 fold change (encorafenib) | log2 fold change [3] | log2 fold change (alisertib) | log2 fold change [4] | log2 fold change (gefitinib) | log2 fold change (lapatinib) | log2 fold change (pictilisib) | log2 fold change (crizotinib) | log2 fold change [5] | log2 fold change (duvelisib) | log2 fold change (gandotinib) | log2 fold change (tozasertib) | log2 fold change (doramapimod) | log2 fold change (bafetinib) | log2 fold change [6] |
| --- | --- | --- | --- | --- | --- | --- | --- | --- | --- | --- | --- | --- | --- | --- | --- | --- | --- | --- | --- | --- |
| PFKFB2 (UniProt O60825) | inactive: 0.017 | inactive: -0.045 | inactive: 0.03 | inactive: -0.02 | inactive: -0.035 | inactive: 0.015 | inactive: -0.124 | inactive: 0.014 | inactive: 0.006 | inactive: 0.014 | inactive: 0.006 | inactive: 0.001 | inactive: 0.017 | inactive: -0.016 | inactive: -0.015 | inactive: -0.035 | inactive: 0.038 | inactive: -0.018 | inactive: -0.07 | inactive: 0.01 |
| PCNP (UniProt Q8WW12) | inactive: -0.038 | inactive: 0.042 | inactive: -0.004 | inactive: -0.031 | inactive: 0.075 | inactive: -0.017 | inactive: -0.01 | inactive: -0.01 | inactive: 0.034 | inactive: 0.018 | inactive: 0.004 | inactive: -0.001 | inactive: 0.012 | inactive: -0.103 | inactive: -0.022 | inactive: 0.089 | inactive: -0.056 | inactive: -0.095 | inactive: 0.039 | inactive: 0.062 |
| PES1 (UniProt O00541) | inactive: -0.017 | inactive: -0.044 | inactive: 0.05 | inactive: 0.005 | inactive: 0.017 | inactive: 0.006 | active: 0.35 | inactive: 0.028 | inactive: -0.003 | inactive: 0.007 | inactive: 0.006 | inactive: 0.005 | inactive: -0.001 | inactive: -0.027 | inactive: 0.01 | inactive: -0.025 | inactive: 0.004 | inactive: -0.021 | inactive: -0.014 | inactive: 0.064 |
| PDLIM5 (UniProt Q96HC4) | inactive: -0.073 | inactive: 0.033 | inactive: -0.014 | inactive: -0.005 | inactive: 0.013 | inactive: 0.005 | inactive: -0.118 | inactive: -0.006 | inactive: -0.009 | inactive: -0.037 | inactive: 0.003 | inactive: -0.007 | inactive: 0.039 | inactive: -0.127 | inactive: -0.003 | inactive: 0.106 | inactive: -0.021 | inactive: -0.026 | inactive: 0.01 | inactive: 0.096 |
| PDLIM4 (UniProt P50479) | inactive: -0.045 | inactive: 0.069 | inactive: 0.035 | inactive: -0.028 | inactive: 0.044 | inactive: 0.033 | inactive: -0.099 | inactive: -0.035 | inactive: -0.026 | inactive: -0.028 | inactive: 0.016 | inactive: 0 | inactive: 0.005 | inactive: -0.056 | inactive: -0.057 | inactive: 0.047 | inactive: -0.046 | inactive: -0.066 | inactive: -0.013 | inactive: 0.007 |
| PDSS1 (UniProt Q5T2R2) | inactive: 0.042 | inactive: 0.08 | inactive: 0.013 | inactive: -0.016 | inactive: 0 | inactive: 0.016 | inactive: 0.037 | inactive: 0.018 | inactive: -0.116 | inactive: 0.128 | inactive: 0.081 | inactive: 0.058 | inactive: -0.03 | inactive: 0.038 | inactive: -0.14 | inactive: -0.022 | inactive: 0.001 | inactive: 0.039 | inactive: -0.036 | inactive: -0.043 |
| PDS5B (UniProt Q9NTI5) | inactive: -0.006 | inactive: -0.048 | inactive: 0.019 | inactive: 0.008 | inactive: -0.025 | inactive: 0.019 | inactive: -0.003 | inactive: 0.012 | inactive: -0.024 | inactive: 0.007 | inactive: -0.02 | inactive: 0.007 | inactive: -0.011 | inactive: -0.04 | inactive: -0.003 | inactive: -0.119 | inactive: -0.003 | inactive: -0.011 | inactive: -0.076 | inactive: 0.033 |
| PEF1 (UniProt Q9UBV8) | inactive: 0.027 | inactive: 0.097 | inactive: 0.029 | inactive: 0.087 | inactive: 0.029 | inactive: 0.039 | inactive: -0.034 | inactive: -0.017 | inactive: 0.029 | inactive: -0.02 | inactive: 0.019 | inactive: 0.041 | inactive: -0.002 | inactive: 0.051 | inactive: -0.004 | inactive: -0.055 | inactive: 0.032 | inactive: -0.01 | inactive: -0.027 | inactive: 0.051 |
| PCBP1 (UniProt Q15365) | inactive: -0.016 | inactive: 0.046 | inactive: 0.026 | inactive: -0.003 | inactive: 0.046 | inactive: 0.023 | inactive: -0.077 | inactive: 0.009 | inactive: 0.013 | inactive: 0.01 | inactive: -0.003 | inactive: -0.003 | inactive: 0.02 | inactive: -0.01 | inactive: -0.015 | inactive: 0.06 | inactive: 0.025 | inactive: 0.008 | inactive: -0.007 | inactive: 0.003 |
| PARS2 (UniProt Q7L3T8) | inactive: 0.015 | inactive: -0.012 | inactive: 0.046 | inactive: 0.008 | inactive: 0.039 | inactive: 0.025 | inactive: -0.099 | inactive: -0.019 | inactive: -0.001 | inactive: 0.014 | inactive: -0.028 | inactive: -0.017 | inactive: -0.026 | inactive: 0.025 | inactive: 0.036 | inactive: -0.031 | inactive: 0.018 | inactive: 0.007 | inactive: 0.073 | inactive: -0.03 |
| PCF11 (UniProt O94913) | inactive: -0.018 | inactive: -0.12 | inactive: 0.002 | inactive: 0.041 | inactive: 0.078 | inactive: 0.036 | inactive: -0.021 | inactive: 0.009 | inactive: 0.042 | inactive: 0.002 | inactive: -0.017 | inactive: -0.014 | inactive: -0.018 | inactive: 0.058 | inactive: 0.005 | inactive: -0.086 | inactive: -0.004 | inactive: -0.031 | inactive: -0.021 | inactive: -0.017 |
| PDZD8 (UniProt Q8NEN9) | inactive: -0.017 | inactive: -0.009 | inactive: -0.012 | inactive: -0.031 | inactive: 0.037 | inactive: 0.021 | inactive: -0.028 | inactive: -0.002 | inactive: 0.041 | inactive: 0 | inactive: -0.021 | inactive: -0.151 | inactive: -0.018 | inactive: -0.035 | inactive: 0.015 | inactive: -0.055 | inactive: -0.04 | inactive: 0.022 | inactive: -0.075 | inactive: 0.034 |
| PGAM1 (UniProt P18669) | inactive: 0.019 | inactive: 0.029 | inactive: 0.019 | inactive: 0.01 | inactive: 0.015 | inactive: -0.018 | inactive: -0.036 | inactive: -0.028 | inactive: -0.006 | inactive: -0.016 | inactive: 0.05 | inactive: -0.008 | inactive: 0.036 | inactive: 0.168 | inactive: 0.025 | inactive: -0.033 | inactive: -0.022 | inactive: 0.002 | inactive: 0.105 | inactive: -0.149 |
| PDPR (UniProt Q8NCN5) | inactive: -0.076 | inactive: 0.034 | inactive: -0.055 | inactive: -0.086 | inactive: -0.006 | inactive: -0.02 | inactive: -0.057 | inactive: -0.085 | inactive: -0.011 | inactive: -0.002 | inactive: -0.021 | inactive: -0.026 | inactive: -0.011 | inactive: -0.028 | inactive: 0.011 | inactive: 0.012 | inactive: 0.02 | inactive: 0.014 | inactive: 0.01 | inactive: 0.037 |
| PDIA3 (UniProt P30101) | inactive: 0.031 | inactive: 0.013 | inactive: -0.016 | inactive: -0.017 | inactive: -0.012 | inactive: -0.01 | inactive: -0.047 | inactive: 0.017 | inactive: 0.007 | inactive: -0.018 | inactive: -0.014 | inactive: 0.005 | inactive: 0.063 | inactive: 0.044 | inactive: -0.003 | inactive: -0.054 | inactive: -0.008 | inactive: -0.019 | inactive: 0.006 | inactive: -0.08 |
| PCYT1B (UniProt Q9Y5K3) | inactive: -0.007 | inactive: -0.023 | inactive: 0.033 | inactive: 0.01 | inactive: 0.086 | inactive: 0.047 | inactive: -0.025 | inactive: 0.033 | inactive: -0.02 | inactive: 0.033 | inactive: 0.008 | inactive: 0.004 | inactive: 0.025 | inactive: -0.044 | inactive: -0.007 | inactive: 0.193 | inactive: 0.008 | inactive: -0.003 | inactive: -0.127 | active: 0.239 |

No new results follow: entries from further up.

| Target | log2 fold change (alvocidib) | log2 fold change (Tubastatin A) | log2 fold change [1] | log2 fold change (defactinib) | log2 fold change [2] | log2 fold change (encorafenib) | log2 fold change [3] | log2 fold change (alisertib) | log2 fold change [4] | log2 fold change (gefitinib) | log2 fold change (lapatinib) | log2 fold change (pictilisib) | log2 fold change (crizotinib) | log2 fold change [5] | log2 fold change (duvelisib) | log2 fold change (gandotinib) | log2 fold change (tozasertib) | log2 fold change (doramapimod) | log2 fold change (bafetinib) | log2 fold change [6] |
| --- | --- | --- | --- | --- | --- | --- | --- | --- | --- | --- | --- | --- | --- | --- | --- | --- | --- | --- | --- | --- |
| PCBP1 (UniProt Q15365) | inactive: -0.016 | inactive: 0.046 | inactive: 0.026 | inactive: -0.003 | inactive: 0.046 | inactive: 0.023 | inactive: -0.077 | inactive: 0.009 | inactive: 0.013 | inactive: 0.01 | inactive: -0.003 | inactive: -0.003 | inactive: 0.02 | inactive: -0.01 | inactive: -0.015 | inactive: 0.06 | inactive: 0.025 | inactive: 0.008 | inactive: -0.007 | inactive: 0.003 |
| PARS2 (UniProt Q7L3T8) | inactive: 0.015 | inactive: -0.012 | inactive: 0.046 | inactive: 0.008 | inactive: 0.039 | inactive: 0.025 | inactive: -0.099 | inactive: -0.019 | inactive: -0.001 | inactive: 0.014 | inactive: -0.028 | inactive: -0.017 | inactive: -0.026 | inactive: 0.025 | inactive: 0.036 | inactive: -0.031 | inactive: 0.018 | inactive: 0.007 | inactive: 0.073 | inactive: -0.03 |
